“And” between values parts separate entries of the source, which are not always exact repeats. Identical values can stand only once. The whole screen tested about 78,000 compounds, of which about 1,800 (2.3%) were called active. This list was built around the results that the source calls inconclusive (neither active nor inactive); the mix of calls is not that of the screen. No stated cut-off is given here; in the data, active means inhibition above about 30%; inconclusive means mostly about 10% to 28%; inactive means weaker than that.
These compounds were tested against Interleukin-1 receptor-like 1 (Homo sapiens) (UniProt Q01638) (assay: blocks human ST2 binding to IL-33, primary screen, biochemical, AlphaLISA (AID 1259354)). Conditions: AlphaLISA ST2-Fc/biotin-IL-33 interaction, 1 h; at 17 µM, hits give high values.

Chains of the proteins cited; added tags and fusions are not shown. Lines headed by an entry give the natural chain unless they say otherwise; changes in a name come on top.
UniProt Q01638: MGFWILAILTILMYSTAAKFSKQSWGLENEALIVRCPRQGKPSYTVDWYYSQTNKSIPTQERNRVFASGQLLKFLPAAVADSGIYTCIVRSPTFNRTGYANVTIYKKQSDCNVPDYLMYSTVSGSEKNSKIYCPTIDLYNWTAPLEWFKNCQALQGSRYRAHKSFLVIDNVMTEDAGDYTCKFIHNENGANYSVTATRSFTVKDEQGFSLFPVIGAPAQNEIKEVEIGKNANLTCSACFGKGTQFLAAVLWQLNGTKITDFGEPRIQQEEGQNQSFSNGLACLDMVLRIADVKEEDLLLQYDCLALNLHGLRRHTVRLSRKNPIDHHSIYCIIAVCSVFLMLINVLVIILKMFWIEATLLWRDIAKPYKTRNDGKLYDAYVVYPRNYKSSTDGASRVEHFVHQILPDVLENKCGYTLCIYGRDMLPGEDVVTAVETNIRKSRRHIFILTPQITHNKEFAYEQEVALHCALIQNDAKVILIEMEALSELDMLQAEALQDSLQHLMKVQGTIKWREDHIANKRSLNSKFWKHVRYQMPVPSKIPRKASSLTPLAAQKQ

| Structure (SMILES) | inhibition |
| --- | --- |
| Nc1ccc2oc(-c3cc(Cl)ccc3Cl)nc2c1 | inconclusive: 13% and inconclusive: 12% |
| CCOC(=O)C1(CCc2ccccc2)CCN(C(=O)c2cccc(C)n2)CC1 | inconclusive: 15% |
| O=C(NCc1ccc(Cl)cc1)c1ccc2nc3c(cc2c1)CCS3 | inactive |
| O=C(CC1COCCN1)NCc1ccc2c(c1)OCO2 (stereo unspecified) | inconclusive: 23% |
| O=C(CC12CC3CC(CC(C3)C1)C2)NCCS(=O)(=O)N1CCCC1 | inconclusive: 14% |
| Cc1ccnc(NCCNCc2nnc(-c3ccc(C)n3C)o2)c1 | inconclusive: 13% |
| COc1ccc(/C=C2/c3cc(C)ccc3-c3ncccc32)cc1 | active: 31% |
| CN(Cc1ccc(C(=O)O)cc1)Cc1nc2ccccc2n1C | inconclusive: 16% |
| O=[N+]([O-])c1ccc(CSc2nnc(-c3cccnc3)n2Cc2ccccc2)cc1 | inconclusive: 11% |
| CCOC(=O)C1=C(N)Oc2c(oc(CO)cc2=O)C1c1ccc(Cl)cc1 (stereo unspecified) | inconclusive: 16% |
| CCSc1nc2ccccc2n1Cc1ccccc1F | inactive |
| O=[N+]([O-])c1cccc(-c2noc([C@@H]3C[C@@H](O)CN3Cc3ccc(CO)o3)n2)c1 | active: 58% |
| Cc1cc(C)nc(Sc2ncnc(N)c2[N+](=O)[O-])n1 | inconclusive: 15% |
| COc1ccccc1-c1ccnc(N[C@H]2CO[C@H]3[C@@H]2OC[C@@H]3NC(=O)c2ccc(C(F)(F)F)cc2)n1 | inactive |
| COc1ccc(C(=O)CSc2n[nH]c(-c3ccncc3)n2)cc1C | inconclusive: 14% |
| O=C1NC(=O)/C(=C\c2cc(Cl)cc(Cl)c2O)S1 | inconclusive: 17% |
| CC(C(=O)O)c1nn(C)c(=O)c2ccccc12 (stereo unspecified) | inconclusive: 10% |
| O=C(NCCN1CCCCCC1)C1CCN(S(=O)(=O)N2CCCCC2)CC1 | inactive |
| COCCn1c(CCCC(=O)NCc2ccc(C(C)C)cc2)nc2cccnc21 | inconclusive: 12% |
| O=C(c1cccc(-n2cnnc2)n1)N1CCOC(c2ccc(Cl)cc2)C1 (stereo unspecified) | inconclusive: 11% |
| COc1cc(/C=C2/C(C)=C(C#N)c3nc(N)c(C#N)c(C)c32)ccc1O | inconclusive: 25% |
| N#Cc1ccc(C(=O)Nc2ccc3n(c2=O)C[C@H]2C[C@@H]3CN(S(=O)(=O)c3cccc4cccnc34)C2)cc1 | inconclusive: 20% |
| Cc1cccnc1CN1CCN(C(=O)[C@H](N)CC(C)C)CC1 | inconclusive: 24% |

| Structure (SMILES) | inhibition |
| --- | --- |
| N#Cc1c(N2CCCCCC2)ncc2cc3ccccc3nc12 | active: 37% |
| CC12CCC3C1C(c1c(cc(O)c(C(=O)c4ccccc4)c1O)O2)C3(C)C (stereo unspecified) | active: 31% |
| Cc1ccc(C)c(OCCn2cc(C=C3C(=O)NC(=O)NC3=O)c3ccccc32)c1 | inconclusive: 23% |
| CC(=O)NCC1CCN(Cc2cccc(-n3nc(C)cc3C)c2)C1 (stereo unspecified) | inconclusive: 13% |
| Cc1ccccc1Oc1nc2c(c(=O)n(C)c(=O)n2C)n1C | inconclusive: 10% |
| O=C(NCc1nnnn1-c1ccccc1)C1CC2(CCNCC2)CN1 (stereo unspecified) | inconclusive: 14% |
| CCC(NS(=O)(=O)c1ccc(Cl)c([N+](=O)[O-])c1)C12CC3CC(CC(C3)C1)C2 (stereo unspecified) | inconclusive: 12% |
| CSc1ccc(-c2ncnn2-c2ccc(C)c(Cl)c2)cc1 | inconclusive: 17% |
| CCn1ncnc1CN1CCN(C)C(C(=O)O)C1 (stereo unspecified) | inconclusive: 10% |
| CC(C)(C)C(=O)NCC1CCCN(Cc2ccc3c(c2)OCCO3)C1 (stereo unspecified) | inactive |
| COc1ccc(C(=O)N[C@H]2CC[C@]3(C)CCC([C@H](C)C(=O)N(C)Cc4cccnc4)[C@H](O)[C@H]3[C@@H]2C)cc1 (stereo partly specified) | active: 53% |
| O=C(NCc1ccccc1)c1ccc2nc3ccc(Cl)cc3c(=O)n2c1 | inactive |
| CCN(C(=O)CS(=O)(=O)c1cccc2nsnc12)c1ccc(C)c(C)c1 | inactive |
| Cc1c(C(c2ccccc2)c2c(C)n(C)n(-c3ccccc3)c2=O)c(=O)n(-c2ccccc2)n1C | inactive |
| CCn1cc(C=C2C(=O)OC(C)(C(C)(C)C)OC2=O)c2ccccc21 (stereo unspecified) | active: 44% |
| COc1cc(-c2ccc(OC)c(Cl)c2)nc(N)n1 | inconclusive: 11% |
| Cc1ccc(Cl)cc1NC(=O)CN1CCN(Cc2ccccc2F)S1(=O)=O | active: 97% |
| CCCNC(=O)NCc1cccnc1N(CC)CC | inconclusive: 13% |
| O=C(CC1COCCN1)N1CCCN(C2Cc3ccccc3C2)CC1 (stereo unspecified) | inconclusive: 23% |
| c1ccc(NC2CCN(Cc3cc4n(n3)CCCNC4)CC2)nc1 | inactive |
| CC(=O)C1=C(O)C(=O)N(Cc2cccnc2)C1c1ccc([N+](=O)[O-])cc1 (stereo unspecified) | inconclusive: 18% |
| CCOc1ccc(NC(=O)CN2C(=O)C(=O)c3ccccc32)cc1 | inconclusive: 24% |
| O=C(CCc1cc(=O)[nH]o1)NC1CC(=O)N(CCc2ccc(F)cc2)C1 (stereo unspecified) | inconclusive: 17% |

| Structure (SMILES) | inhibition |
| --- | --- |
| Cc1ccc(NC(=O)C(=O)N2CCCN(C)C3(CCN(C)CC3)C2)c(C)c1 | inconclusive: 22% |
| COc1ccc(Cc2noc(CN(C)C3CC(C)(C)NC(C)(C)C3)n2)cc1OC | inconclusive: 12% |
| Cc1ccc(C2CC(c3cccs3)=NN2S(=O)(=O)c2ccc(C)cc2)cc1 (stereo unspecified) | active: 33% |
| N#C/C(=C\c1cccs1)c1nc(-c2cccs2)cs1 | active: 64% |
| CN1C[C@@H](NC(=O)c2ccc3c(c2)OCO3)C[C@H]1c1nc(-c2ccc(Cl)cc2)no1 | inconclusive: 27% |
| Cc1ccc(S(=O)(=O)N2CCOCC2)cc1-c1nnc2c3ccccc3c(C)nn12 | inactive |
| CC1CCN(c2nc3c(c(=O)n(Cc4ccc(Br)cc4)c(=O)n3C)n2C)CC1 | inconclusive: 26% |
| COc1ccc(S(=O)(=O)Nc2ccc(S(=O)(=O)Nc3cc(OC)ccc3OC)cc2)cc1 | active: 49% |
| O=S(=O)(NC1CC1)c1ccc(Br)s1 | inactive |
| COc1cccc(C2CCN(C(=O)c3cccc(NCC(=O)O)c3)C2)c1OC (stereo unspecified) | inconclusive: 22% |
| c1coc(-c2noc(CNCc3ccccc3Cn3cccn3)n2)c1 | inconclusive: 10% |
| O=C(NCC1CCCO1)c1ccc2c(c1)ncn2C1CCCC1 (stereo unspecified) | inconclusive: 14% |
| O=C(Nc1cccc2nsnc12)c1ccc(-c2ccc(Br)cc2)o1 | active: 31% |
| O=C(c1cc(-c2ccc3c(c2)OCO3)on1)N1CCCc2ccccc21 | inactive |
| COc1cc2c(cc1OC)CN(C(=O)C[C@@H]1CCNC[C@@H]1Cc1cc(-c3ccc(C(C)(C)C)cc3)on1)CC2 | inconclusive: 16% |
| O=C(c1ccccc1)N1Cc2[nH]cnc2C[C@H]1c1nc(-c2ccc3ccccc3c2)no1 | inactive |
| C#CCN(Cc1ccc(F)cc1)C(=O)CC(=O)Nc1cccc(C)c1C | inconclusive: 12% |
| COc1nccnc1-c1cc(NCc2cccnc2)nc2[nH]ccc12 | inconclusive: 19% |
| CCCN(Cc1cc(OC)c(OC)cc1[N+](=O)[O-])CC1CC1 | inconclusive: 24% |
| COC(=O)c1cc2n(n1)CCCN(C(=O)Cc1cn3ccsc3n1)C2 | inconclusive: 20% |
| C[C@H](C(=O)N1CCCC1)C1CC[C@@]2(C)Cc3sc(NC(=O)C4CC4)nc3[C@@H](C)[C@@H]2[C@H]1O (stereo partly specified) | inconclusive: 10% |
| COc1ncccc1C(=O)N1CCOC(c2ccc(Cl)c(Cl)c2)C1 (stereo unspecified) | inconclusive: 13% |
| C=C(C)CN(CC)S(=O)(=O)c1sc2c(c1C(=O)OC)CCN(Cc1cc(Cl)ccc1O)C2 | inactive |

| Structure (SMILES) | inhibition |
| --- | --- |
| Cc1ccc([N+](=O)[O-])cc1N1C(=O)Nc2ccccc2N1O | inconclusive: 14% |
| CC1=CC[C@@]2(C)CC[C@@](O)(C(C)C)[C@@H]2[C@@H](O)C1 | inconclusive: 15% |
| CCOc1ccc(Br)c(/C=C2\C(=O)Nc3ccc(Br)cc32)c1 | active: 60% |
| CCOC(=O)c1[nH]c2ccccc2c1NC(=O)COc1ccc(Cl)cc1 | inconclusive: 17% |
| Cc1ccc(-c2cncc(C(=O)N3CCCCC3)n2)c(-n2cccn2)c1 | inactive |
| O=C(c1cnccn1)N1CCC(N2CCC(N3CCCC3=O)CC2)CC1 | inconclusive: 17% |
| CSc1ccccc1N1C(=O)C2C3CCC(C3)C2C1=O (stereo unspecified) | inconclusive: 18% |
| C=CCC1c2cccc(C(=O)O)c2C(=O)N1c1ccc(F)cc1 (stereo unspecified) | inconclusive: 19% |
| Cc1cc(Br)ccc1NC(=O)C1CCN(S(=O)(=O)c2cccs2)CC1 | inactive |
| CCCCNC(=O)c1nn(-c2ccc(OC)cc2)c(=O)c2c1c1ccccc1n2C | inconclusive: 13% |
| Cc1nn(-c2ccccc2)c(C)c1CC(=O)NC1CCCN(C2CCN(C)CC2)C1 (stereo unspecified) | inconclusive: 13% |
| COc1ccc2cc3cc(C(=O)N(Cc4cccs4)C4CCCC4)oc3nc2c1 | inconclusive: 21% |
| COc1ccc(Nc2ncnc3nc[nH]c23)cc1 | inactive |
| Fc1cccc(CN(CC2CCN(C3CCCC3)CC2)CC2CCCO2)c1 (stereo unspecified) | inconclusive: 22% |
| COc1ccc2oc(=O)c(-c3nc(-c4cccc([N+](=O)[O-])c4)n[nH]3)cc2c1 | inconclusive: 19% |
| CCOC(=O)C1=C(C)Nc2nc(SC)nn2C1c1ccc(-c2ncc(-c3ccccc3)o2)cc1 (stereo unspecified) | inactive |
| C=CCc1cc(C(=O)N2CCOCC2)ccc1O | inconclusive: 11% |
| CCN(CC)C(=O)Cn1c(=O)n(CCCC(=O)NCc2ccc(C)cc2)c(=O)c2sccc21 | inconclusive: 10% |
| COC(=O)c1ccccc1NS(=O)(=O)c1ccc2c3c(cccc13)C(=O)N2 | inconclusive: 15% |
| COc1ccccc1N(C)c1cc(F)c(F)c(F)c1F | inactive |
| Cc1ccc(-c2nc3cc(NC(=O)c4cc([N+](=O)[O-])c(C)c([N+](=O)[O-])c4)ccc3o2)cc1 | inconclusive: 27% |
| [N-]=C=C1C(=O)NC(=O)C([n+]2ccccc2)C1c1ccccc1I (stereo unspecified) | inconclusive: 11% |
